In PMC11375253:
These are yes or no findings as the source states them, for the method shown. Binding seen in cells or lysates may run through a third protein. These calls come from enrichment with a bait or labelling near it, and not all partners need be listed.

Sequences of proteins named here, by UniProt entry; tags and fusion partners are left off. Residues count along the entry.
UniProt P40692, residues 516-650: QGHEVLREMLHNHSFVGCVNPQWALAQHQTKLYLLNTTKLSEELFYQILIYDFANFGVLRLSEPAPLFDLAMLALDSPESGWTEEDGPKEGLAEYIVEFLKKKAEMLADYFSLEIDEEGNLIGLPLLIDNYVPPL
UniProt Q7Z6Z7: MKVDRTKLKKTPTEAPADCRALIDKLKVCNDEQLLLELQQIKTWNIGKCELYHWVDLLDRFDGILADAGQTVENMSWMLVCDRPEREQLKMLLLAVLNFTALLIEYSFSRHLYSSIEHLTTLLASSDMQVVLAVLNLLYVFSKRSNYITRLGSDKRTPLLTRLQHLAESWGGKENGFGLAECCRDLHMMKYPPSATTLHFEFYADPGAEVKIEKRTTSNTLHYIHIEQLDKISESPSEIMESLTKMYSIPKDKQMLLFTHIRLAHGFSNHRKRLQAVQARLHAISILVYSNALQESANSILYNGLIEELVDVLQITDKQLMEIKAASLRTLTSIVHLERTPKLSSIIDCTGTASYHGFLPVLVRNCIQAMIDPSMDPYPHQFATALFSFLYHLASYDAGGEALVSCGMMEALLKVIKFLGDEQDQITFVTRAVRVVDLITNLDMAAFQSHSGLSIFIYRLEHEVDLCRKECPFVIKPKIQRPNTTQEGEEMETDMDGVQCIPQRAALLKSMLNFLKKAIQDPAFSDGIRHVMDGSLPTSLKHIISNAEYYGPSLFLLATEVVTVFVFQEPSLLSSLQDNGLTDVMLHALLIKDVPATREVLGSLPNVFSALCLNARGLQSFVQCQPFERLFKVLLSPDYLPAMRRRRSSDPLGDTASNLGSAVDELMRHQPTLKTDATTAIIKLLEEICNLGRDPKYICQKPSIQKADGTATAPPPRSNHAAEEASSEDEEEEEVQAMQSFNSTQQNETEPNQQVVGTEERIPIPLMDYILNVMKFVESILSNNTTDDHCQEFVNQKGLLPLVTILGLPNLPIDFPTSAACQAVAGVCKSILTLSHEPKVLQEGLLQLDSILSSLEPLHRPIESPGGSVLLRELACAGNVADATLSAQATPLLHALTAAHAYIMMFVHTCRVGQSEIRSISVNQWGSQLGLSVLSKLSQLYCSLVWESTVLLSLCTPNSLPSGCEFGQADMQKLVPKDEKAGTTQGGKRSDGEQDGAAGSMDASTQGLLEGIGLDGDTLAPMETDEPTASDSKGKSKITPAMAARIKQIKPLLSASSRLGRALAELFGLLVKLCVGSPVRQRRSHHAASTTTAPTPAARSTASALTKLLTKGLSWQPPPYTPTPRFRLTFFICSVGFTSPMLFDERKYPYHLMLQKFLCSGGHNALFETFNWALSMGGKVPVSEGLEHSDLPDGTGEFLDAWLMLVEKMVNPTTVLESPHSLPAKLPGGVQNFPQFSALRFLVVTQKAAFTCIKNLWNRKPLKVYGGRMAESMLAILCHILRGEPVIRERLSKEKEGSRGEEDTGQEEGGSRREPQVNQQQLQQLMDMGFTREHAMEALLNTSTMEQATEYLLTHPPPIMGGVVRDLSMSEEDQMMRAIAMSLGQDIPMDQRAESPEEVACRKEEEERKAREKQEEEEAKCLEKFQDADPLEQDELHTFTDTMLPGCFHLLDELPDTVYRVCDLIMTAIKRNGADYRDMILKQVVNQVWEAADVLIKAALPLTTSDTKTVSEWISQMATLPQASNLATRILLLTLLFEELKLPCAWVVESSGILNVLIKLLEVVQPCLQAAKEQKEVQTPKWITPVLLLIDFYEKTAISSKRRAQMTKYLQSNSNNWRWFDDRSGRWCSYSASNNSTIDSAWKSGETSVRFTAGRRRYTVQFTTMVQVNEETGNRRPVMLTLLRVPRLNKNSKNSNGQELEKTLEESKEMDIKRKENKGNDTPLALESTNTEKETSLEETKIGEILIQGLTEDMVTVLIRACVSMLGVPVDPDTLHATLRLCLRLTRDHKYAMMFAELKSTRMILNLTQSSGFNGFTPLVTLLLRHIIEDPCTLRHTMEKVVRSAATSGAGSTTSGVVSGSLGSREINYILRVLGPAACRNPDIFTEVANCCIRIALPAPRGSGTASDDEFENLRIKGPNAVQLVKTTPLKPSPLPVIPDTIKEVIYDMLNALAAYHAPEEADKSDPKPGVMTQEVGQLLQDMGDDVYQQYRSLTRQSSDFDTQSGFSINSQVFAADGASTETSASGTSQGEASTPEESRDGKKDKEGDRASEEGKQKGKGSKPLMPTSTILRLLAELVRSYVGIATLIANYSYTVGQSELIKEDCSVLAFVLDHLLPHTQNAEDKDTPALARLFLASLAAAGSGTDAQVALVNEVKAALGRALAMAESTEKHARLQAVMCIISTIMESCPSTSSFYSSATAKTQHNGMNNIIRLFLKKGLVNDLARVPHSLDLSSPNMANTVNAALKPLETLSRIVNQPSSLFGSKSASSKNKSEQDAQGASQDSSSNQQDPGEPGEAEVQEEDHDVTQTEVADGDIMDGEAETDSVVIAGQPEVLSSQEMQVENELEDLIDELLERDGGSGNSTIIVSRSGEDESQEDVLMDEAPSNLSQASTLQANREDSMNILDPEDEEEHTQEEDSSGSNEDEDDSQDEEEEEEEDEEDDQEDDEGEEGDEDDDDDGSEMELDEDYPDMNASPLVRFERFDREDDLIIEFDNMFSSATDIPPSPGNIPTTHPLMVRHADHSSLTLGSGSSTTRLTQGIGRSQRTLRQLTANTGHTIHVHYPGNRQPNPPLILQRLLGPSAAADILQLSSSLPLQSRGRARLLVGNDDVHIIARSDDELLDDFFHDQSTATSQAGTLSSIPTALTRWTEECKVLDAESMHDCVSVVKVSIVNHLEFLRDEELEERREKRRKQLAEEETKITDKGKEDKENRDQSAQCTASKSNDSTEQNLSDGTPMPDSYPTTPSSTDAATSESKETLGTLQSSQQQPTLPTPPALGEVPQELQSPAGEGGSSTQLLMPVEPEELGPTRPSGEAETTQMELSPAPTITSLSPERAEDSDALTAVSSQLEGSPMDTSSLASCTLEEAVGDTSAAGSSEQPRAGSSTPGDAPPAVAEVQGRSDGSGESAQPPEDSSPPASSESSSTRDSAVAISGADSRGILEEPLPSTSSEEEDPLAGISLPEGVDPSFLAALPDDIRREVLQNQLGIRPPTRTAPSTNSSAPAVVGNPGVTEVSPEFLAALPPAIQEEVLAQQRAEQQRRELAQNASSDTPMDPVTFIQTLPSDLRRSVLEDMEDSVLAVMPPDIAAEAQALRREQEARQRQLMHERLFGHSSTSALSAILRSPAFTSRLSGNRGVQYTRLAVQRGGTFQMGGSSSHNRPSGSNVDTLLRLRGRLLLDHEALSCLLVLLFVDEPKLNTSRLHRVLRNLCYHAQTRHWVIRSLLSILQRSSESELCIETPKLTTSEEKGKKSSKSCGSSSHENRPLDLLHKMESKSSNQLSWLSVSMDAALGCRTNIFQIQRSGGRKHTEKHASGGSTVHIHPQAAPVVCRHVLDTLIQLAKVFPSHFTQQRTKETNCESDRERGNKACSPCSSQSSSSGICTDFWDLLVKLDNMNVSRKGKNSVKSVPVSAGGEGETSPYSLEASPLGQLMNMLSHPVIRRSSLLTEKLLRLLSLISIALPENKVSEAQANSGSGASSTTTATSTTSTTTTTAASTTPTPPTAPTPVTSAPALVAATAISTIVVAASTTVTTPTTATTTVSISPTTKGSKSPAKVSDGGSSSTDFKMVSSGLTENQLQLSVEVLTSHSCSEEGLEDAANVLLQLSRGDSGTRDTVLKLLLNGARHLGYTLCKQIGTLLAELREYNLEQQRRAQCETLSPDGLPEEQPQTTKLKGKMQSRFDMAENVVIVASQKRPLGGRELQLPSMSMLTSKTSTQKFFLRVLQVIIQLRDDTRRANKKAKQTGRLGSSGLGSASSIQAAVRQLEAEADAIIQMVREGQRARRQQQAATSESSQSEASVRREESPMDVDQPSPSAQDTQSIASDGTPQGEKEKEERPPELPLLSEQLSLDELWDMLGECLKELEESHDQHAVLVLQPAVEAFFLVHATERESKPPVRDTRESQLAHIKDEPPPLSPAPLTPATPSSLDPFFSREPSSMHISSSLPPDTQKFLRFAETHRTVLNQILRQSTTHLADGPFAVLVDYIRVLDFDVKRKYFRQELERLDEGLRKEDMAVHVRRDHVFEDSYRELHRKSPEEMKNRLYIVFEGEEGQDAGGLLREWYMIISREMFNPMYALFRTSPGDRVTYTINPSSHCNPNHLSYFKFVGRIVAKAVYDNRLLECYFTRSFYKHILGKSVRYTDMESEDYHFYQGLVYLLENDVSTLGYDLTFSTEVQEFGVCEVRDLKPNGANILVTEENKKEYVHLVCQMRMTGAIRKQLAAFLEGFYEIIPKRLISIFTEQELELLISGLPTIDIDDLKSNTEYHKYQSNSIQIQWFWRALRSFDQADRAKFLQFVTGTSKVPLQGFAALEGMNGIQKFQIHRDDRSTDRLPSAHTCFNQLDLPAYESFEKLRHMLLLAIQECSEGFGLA
UniProt Q05086: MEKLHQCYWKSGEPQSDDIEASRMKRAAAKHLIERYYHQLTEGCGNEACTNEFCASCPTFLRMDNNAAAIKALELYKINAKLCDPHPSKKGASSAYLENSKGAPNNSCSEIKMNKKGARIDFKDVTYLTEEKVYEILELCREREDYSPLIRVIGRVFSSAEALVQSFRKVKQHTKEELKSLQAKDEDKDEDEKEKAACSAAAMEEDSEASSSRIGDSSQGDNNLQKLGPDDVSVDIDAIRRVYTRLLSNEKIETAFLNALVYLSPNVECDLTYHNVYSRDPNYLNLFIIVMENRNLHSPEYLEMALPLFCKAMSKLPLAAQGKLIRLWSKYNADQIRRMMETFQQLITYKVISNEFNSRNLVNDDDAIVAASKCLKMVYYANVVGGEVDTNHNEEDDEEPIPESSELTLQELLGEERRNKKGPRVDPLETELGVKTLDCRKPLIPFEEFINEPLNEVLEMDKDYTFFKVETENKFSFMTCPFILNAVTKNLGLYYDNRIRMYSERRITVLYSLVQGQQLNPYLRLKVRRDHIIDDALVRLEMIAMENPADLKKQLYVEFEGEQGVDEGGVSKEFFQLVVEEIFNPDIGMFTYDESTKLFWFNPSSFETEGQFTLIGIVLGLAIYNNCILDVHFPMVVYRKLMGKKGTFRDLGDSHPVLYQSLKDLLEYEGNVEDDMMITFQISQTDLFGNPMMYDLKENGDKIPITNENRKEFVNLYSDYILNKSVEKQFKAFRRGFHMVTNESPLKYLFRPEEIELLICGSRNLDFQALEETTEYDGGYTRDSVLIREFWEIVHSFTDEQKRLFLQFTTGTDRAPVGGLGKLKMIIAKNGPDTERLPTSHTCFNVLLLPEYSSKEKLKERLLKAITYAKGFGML

Molecular target: MLH1^516-650 fragment, Flag-tagged (UniProt P40692)
Test: affinity purification with mass spectrometry; HEK-293T expressing Flag-tagged MLH1 516-650, MG132 10 uM for 4 h; lysate on anti-Flag beads overnight at 4 °C; HPLC-coupled tandem mass spectrometry

| Substance | binding |
| --- | --- |
| HUWE1 (from UniProt Q7Z6Z7 1-4374) (enzyme) | binds |
| UBE3A (from UniProt Q05086 1-875) (enzyme) | binds |
